In PMC10259659:
No constants are given. Whether binding was seen depends on the method and setting. In cells and extracts the contact can be indirect. For part of these data: Binding can be weak; no strength is given. Tags and fused reporters may be left off the sequences shown.

By UniProt entry, the sequences of proteins in these tests, tags left out. Where a name states a change or a piece, a line headed by the entry shows the natural chain unless it says otherwise.
UniProt Q8IU00: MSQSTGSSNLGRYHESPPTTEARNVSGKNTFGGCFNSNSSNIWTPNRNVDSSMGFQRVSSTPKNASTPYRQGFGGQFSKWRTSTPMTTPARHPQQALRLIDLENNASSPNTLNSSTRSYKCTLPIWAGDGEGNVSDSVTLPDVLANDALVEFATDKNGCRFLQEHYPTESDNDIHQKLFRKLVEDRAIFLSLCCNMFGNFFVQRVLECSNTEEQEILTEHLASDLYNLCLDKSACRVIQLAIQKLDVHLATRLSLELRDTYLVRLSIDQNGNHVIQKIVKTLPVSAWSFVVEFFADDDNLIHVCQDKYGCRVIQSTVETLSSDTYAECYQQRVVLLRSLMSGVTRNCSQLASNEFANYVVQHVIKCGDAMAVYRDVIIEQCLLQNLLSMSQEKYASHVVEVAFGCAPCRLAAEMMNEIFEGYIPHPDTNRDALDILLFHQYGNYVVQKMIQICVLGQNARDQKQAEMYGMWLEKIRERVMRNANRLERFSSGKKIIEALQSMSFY

Key:
LST-1^FLAG (C. elegans) = molecular target: T1, LST-1^FLAG (C. elegans) (UniProt P91820); assay: co-IP; whole worms (glp-1(gf ts) adults with germline tumors, at least 10^6), cross-linked with 1% formaldehyde; lysis buffer with 1 M urea; epitope-tagged LST-1 immunoprecipitated with anti-V5 or anti-FLAG on protein G Dynabeads, 4 h at 4°C with RNase A 10 μg/ml; washes up to 0.5 M NaCl; western blot
T1 sequence: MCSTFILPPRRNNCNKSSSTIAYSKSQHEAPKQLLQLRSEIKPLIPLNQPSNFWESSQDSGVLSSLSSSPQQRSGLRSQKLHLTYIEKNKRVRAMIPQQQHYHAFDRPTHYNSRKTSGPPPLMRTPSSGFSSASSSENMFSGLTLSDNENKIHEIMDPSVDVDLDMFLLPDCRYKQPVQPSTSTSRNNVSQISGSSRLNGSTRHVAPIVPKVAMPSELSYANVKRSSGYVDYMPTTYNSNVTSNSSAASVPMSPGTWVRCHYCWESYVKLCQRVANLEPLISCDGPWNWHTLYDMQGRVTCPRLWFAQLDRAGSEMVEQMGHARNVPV

[1] = molecular target: LST-1(A^mB^m)^V5 (PIM-defective LST-1 mutant with 3xV5 epitope tag) (C. elegans) (UniProt P91820); assay: as above

Molecule	binding (LST-1^FLAG (C. elegans))	binding [1]
PUF-8 (epitope-tagged) (C. elegans)	no binding	–
PUF-11 (epitope-tagged) (from UniProt Q8IU00)	binds	–
FBF-1^FLAG (protein, UniProt Q9N5M6 1-614) MDQSKMRYTNQFRKTPQKPTSTEVGNHHTPAHSPMAQHETSMWNFNSLNPYFSMLNMNDGMNYARHQQNHIVTSRPPTPLTDLMSLRSFQSFPNVFMPVSRSRTSSFIQSDTDSSRLEPDDFSQNVRYCSTEIDRNNSSSKNDHLKYSRPALSRNSRSFTRSNNVLPTWSLDSNGEMRSRLSLSEVLDSGDLMKFAVDKTGCQFLEKAVKGSLTSYQKFQLFEQVIGRKDDFLKLSTNIFGNYFVQEIIGMSLTTYDDDNIKRQEKLKNFISSQMTDMCLDKFACRVIQSSLQNMDLSLACKLVQALPRDARLIAICVDQNANHVIQKVVAVIPLKNWEFIVDFVATPEHLRQICFDKYGCRVVQTIIEKLTADSINVDLTSAAQHLRERALQRLMTSVTNRCQELATNEYANYIIQHIVSNDDLAVYRECIIEKCLMRNLLSLSQEKFASHVVEKAFLHAPMELLAEMMDEIFDGYMPHPGTGKDALDIMMFHQFGNYVVQCMLTICCDAVSGRRQTKEGSYDHANSFQVWLKKLHSRVTKERHRLSRFSSGKKMIETLAHLRSTHPIYGLQSSGHESFKTDCFSTASEHDGLELEKNGIEEGNLRLMRTFSP	–	no binding
